Measurements reported in PubChem BioAssay AID743121 (NCATS, 2013)
Here is an unselected part of about 26,000 deposited reagents. Of all reagents, 167 (0.63%) got an active call. 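Calls are per gene from RSA p-values that are not deposited; an individual active-marked siRNA can sensitise only weakly.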 A number with no mark means an inactive call. The numbers tell different reagents against one gene apart.

Purpose: 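Knock-downs that sensitise breast cancer cells to camptothecin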 (primary screen)
Cells: MDA-MB-231 cells, a human breast cancer line
Reagents: single siRNA against human genes, 20 nM siRNA (0.8 pmol per well)
Duration: 120 h (drug added 48 h after transfection, read 72 h later)
Treatment: camptothecin 20 nM (about EC30) for 72 h; vehicle 0.1% DMSO in parallel plates
Read-out: 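CellTiter-Glo ATP signal, scaled to control siRNA as percent viability; sensitisation given as log2 of untreated divided by camptothecin-treated viability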
Reading the numbers: log2 vehicle/camptothecin viability: higher = stronger sensitisation to camptothecin; viability with camptothecin and viability without drug: higher = more viable cells
Rule for the call: 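Active genes have an RSA gene-level p-value below 0.001, computed from the ratios of their separate siRNAs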

gene knocked down,reagent,log2 vehicle/camptothecin viability,viability with camptothecin (% of control),viability without drug (% of control)
KCNIP1 (potassium voltage-gated channel interacting protein 1),1,1.04,24.5,50.5
KCNIP1 (potassium voltage-gated channel interacting protein 1),2,-0.12,86.6,79.7
KCNIP1 (potassium voltage-gated channel interacting protein 1),3,-0.453,49.1,35.9
KCNIP1 (potassium voltage-gated channel interacting protein 1),4,0.293,71.6,87.7
CCNL2 (cyclin L2),1,-0.574,69.3,46.5
CCNL2 (cyclin L2),2,0.111,96.8,105
CCNL2 (cyclin L2),3,-0.598,44.1,29.1
CCNL2 (cyclin L2),4,0.317,79.8,99.4
RELT (RELT TNF receptor),1,-0.13,88.9,81.2
RELT (RELT TNF receptor),2,-0.402,84.1,63.7
RELT (RELT TNF receptor),3,-0.196,81.9,71.5
RELT (RELT TNF receptor),4,0.508,41.6,59.2
HP (haptoglobin),1,0.336,88.5,112
HP (haptoglobin),2,-0.217,49.7,42.7
HP (haptoglobin),3,0.0116,70,70.5
SIRT6 (sirtuin 6),1,0.297,49.8,61.2
SIRT6 (sirtuin 6),2,-0.125,94.1,86.3
SIRT6 (sirtuin 6),3,0.276,59.3,71.8
SIRT6 (sirtuin 6),4,-0.532,81.9,56.7
PRSS27 (serine protease 27),1,0.0523,58.1,60.2
PRSS27 (serine protease 27),2,0.0306,62.5,63.8
PRSS27 (serine protease 27),3,0.0346,81,83
PRSS27 (serine protease 27),4,-0.223,56.2,48.2
"BSCL2 (BSCL2 lipid droplet biogenesis associated, seipin)",1,-0.106,104,96.8
"BSCL2 (BSCL2 lipid droplet biogenesis associated, seipin)",2,-0.488,93.2,66.5
"BSCL2 (BSCL2 lipid droplet biogenesis associated, seipin)",3,-0.455,63.2,46.1
"BSCL2 (BSCL2 lipid droplet biogenesis associated, seipin)",4,-0.44,92.3,68
LTB4R (leukotriene B4 receptor),1,0.343,47,59.6
LTB4R (leukotriene B4 receptor),2,-0.111,75.1,69.6
LTB4R (leukotriene B4 receptor),3,-0.0232,105,103
LTB4R (leukotriene B4 receptor),4,-0.267,81.2,67.4
LTB4R (leukotriene B4 receptor),5,-0.307,80.6,65.1

Continued, starting with the last 6 of the part before.
gene knocked down,reagent,log2 vehicle/camptothecin viability,viability with camptothecin (% of control),viability without drug (% of control)
"BSCL2 (BSCL2 lipid droplet biogenesis associated, seipin)",4,-0.44,92.3,68
LTB4R (leukotriene B4 receptor),1,0.343,47,59.6
LTB4R (leukotriene B4 receptor),2,-0.111,75.1,69.6
LTB4R (leukotriene B4 receptor),3,-0.0232,105,103
LTB4R (leukotriene B4 receptor),4,-0.267,81.2,67.4
LTB4R (leukotriene B4 receptor),5,-0.307,80.6,65.1
SAG (S-antigen visual arrestin),1,-0.0722,51.3,48.8
SAG (S-antigen visual arrestin),2,0.397,53.4,70.2
SAG (S-antigen visual arrestin),3,-0.0395,97.8,95.1
SAG (S-antigen visual arrestin),4,-0.57,91,61.3
GDNF (glial cell derived neurotrophic factor),1,-0.0091,60.7,60.3
GDNF (glial cell derived neurotrophic factor),2,-0.363,92.5,71.9
GDNF (glial cell derived neurotrophic factor),3,-0.314,92.1,74.1
GDNF (glial cell derived neurotrophic factor),4,0.0113,121,122
CALM1 (calmodulin 1),1,-0.13,120,109
CALM1 (calmodulin 1),2,-0.594,130,85.9
CALM1 (calmodulin 1),3,0.401,68.8,90.8
CALM1 (calmodulin 1),4,-0.445,90.3,66.3
BCL7A (BAF chromatin remodeling complex subunit BCL7A),1,1.46,9.99,27.5
BCL7A (BAF chromatin remodeling complex subunit BCL7A),2,-0.265,99.6,82.9
BCL7A (BAF chromatin remodeling complex subunit BCL7A),3,-0.552,69.9,47.7
BCL7A (BAF chromatin remodeling complex subunit BCL7A),4,0.287,75.9,92.6
